For 18 compounds, T/C and survivor count results are on record in PubChem BioAssay AID224 (DTP/NCI, 2004).

The test concerns P335 leukemia ip, BDF1 mice, survival T/C %. The test is described as follows: NCI In Vivo Anticancer Drug Screen. Data for tumor model P335 Leukemia (intraperitoneal) in B6D2F1 (BDF1) mice. The conditions noted are these: T/C endpoint: mean survival time, higher T/C = longer survival. The method, then: The antitumor activity of compounds was measured in mice bearing transplantable tumors. Survival or tumor size were measured and the results are expressed as the measurement made in the treated group (T) divided by the measurement made in the vehicle treated control group (C). The tumor model used in this assay is P335 Leukemia (intraperitoneal) in B6D2F1 (BDF1) mice

Where [1] appears, read: dose: 6.25 mg/kg/injection, schedule: Q01DX Z (ip), vehicle: carboxymethylcellulose (CMC).
Setting [2] is: dose: 12.5 mg/kg/injection, schedule: Q01DX Z (ip), vehicle: carboxymethylcellulose (CMC).
Where [3] appears, read: dose: 50.0 mg/kg/injection, schedule: Q01DX Z (ip), vehicle: carboxymethylcellulose (CMC).
The mark [4] stands for this setting: dose: 100.0 mg/kg/injection, schedule: Q01DX Z (ip), vehicle: carboxymethylcellulose (CMC).
The mark [5] stands for this setting: dose: 62.5 mg/kg/injection, schedule: Q01DX Z (ip), vehicle: carboxymethylcellulose (CMC).
[6] abbreviates: dose: 125.0 mg/kg/injection, schedule: Q01DX Z (ip), vehicle: carboxymethylcellulose (CMC).
The mark [7] stands for this setting: dose: 250.0 mg/kg/injection, schedule: Q01DX Z (ip), vehicle: carboxymethylcellulose (CMC).
The mark [8] stands for this setting: dose: 25.0 mg/kg/injection, schedule: Q01DX Z (ip), vehicle: carboxymethylcellulose (CMC).
[9] abbreviates: dose: 125.0 mg/kg/injection, schedule: Q01DX Z (sc), vehicle: steroid suspending solution.
[10] abbreviates: dose: 250.0 mg/kg/injection, schedule: Q01DX Z (sc), vehicle: steroid suspending solution.
Setting [11] is: dose: 2.5 mg/kg/injection, schedule: Q01DX Z (ip), vehicle: carboxymethylcellulose (CMC).
[12] abbreviates: dose: 5.0 mg/kg/injection, schedule: Q01DX Z (ip), vehicle: carboxymethylcellulose (CMC).

Structures are written as SMILES. The list shows only some results of the screen, not a fair sample: it is rich in T/C values a quarter to a half above the control, in often repeated tests (any T/C) and in doses without a T/C. Other doses and runs of a compound stand elsewhere. T/C: endpoint of the treated group in % of that of the vehicle group. Some entries give survivors of the animals treated and no T/C: the source files T/C as zero there, which appears to mark a toxic dose or a test without result, not a measured value. Some doses without a T/C left all or most animals alive at the check, yet need not have been tolerated: the source hardly ever lists a survival T/C far under the control, and the zero likely stands for such cases as well. Survivors were counted at the toxicity check, usually on the fifth day, unless a day is given; later deaths do not show. Schedule codes are those of the source, read here as Q, the interval in days (D) or hours (H), X, the number of doses. Some schedules carry Z or #; the key to these is not given. Where survival is the endpoint, the PubChem record calls one and a half times the control and up active, and a quarter to a half above the control has no call in these data; cut-offs in other NCI protocols can differ. Some entries were tested several times; the results are listed from low to high. Starred links: 1 amine or outer side, 2 acyl side, 3 side chain; linkers in the order of their positions; H or OH if unused. Positions of bridges follow the written chain, without caps; N, C: chain ends. Non-standard residues stand in square brackets, D forms with d. Residues, ends and D or L forms follow the SMILES beside them. Chains are numbered I, II in the order given. Actinocin(9to1) = Cc1c2oc3c(C)ccc(C(=O)[*:1])c3nc-2c(C(=O)[*:2])c(N)c1=O; aThr = C[C@H](O)[C@H](N)C(=O)O; NMeV = CN[C@H](C(=O)O)C(C)C; Sar = CNCC(=O)O

As to `O=C(Nc1ccc(C2=NCCN2)cc1)c1ccc(C(=O)Nc2ccc(C3=NCCN3)cc2)cc1`, the T/C (dose: 400.0 mg/kg/injection, schedule: Q01DX Z (ip), vehicle: carboxymethylcellulose (CMC)) is 129 % of control. Moreover, the survivor count was 1 of 6 (dose: 800.0 mg/kg/injection, schedule: Q01DX Z (ip), vehicle: carboxymethylcellulose (CMC)) and 1 of 6 (dose: 1600.0 mg/kg/injection, schedule: Q01DX Z (ip), vehicle: carboxymethylcellulose (CMC)).

Consider `Cc1c2oc3c(C)ccc(C(=O)N[C@@H]4C(=O)N[C@H](C(C)C)C(=O)N5CCC[C@H]5C(=O)N(C)CC(=O)N(C)[C@@H](C(C)C)C(=O)O[C@H]4C)c3nc-2c(C(=O)N[C@@H]2C(=O)N[C@H](C(C)C)C(=O)N3CCC[C@H]3C(=O)N(C)CC(=O)N(C)[C@@H](C(C)C)C(=O)O[C@H]2C)c(N)c1=O` (I: [aThr][dV]P[Sar][NMeV] / II: [aThr][dV]P[Sar][NMeV]; ester I:1-I:C, II:1-II:C; linker I:N-II:N via Actinocin(9to1)), for which, under “dose: 12.8 micrograms/kg/injection, schedule: Q01DX Z (ip), vehicle: saline”, the T/C was 140 % of control.

For the compound `CN(Cc1cnc2nc(N)nc(N)c2n1)c1c(Cl)cc(C(=O)NC(CCC(=O)O)C(=O)O)cc1Cl` (centres undefined), the T/C reads like this: under setting [1], 126 % of control; under setting [2], 132 % of control; under setting [3], 134 and 147 % of control. Moreover, the survivor count by setting is: under setting [2], 6 of 6; under setting [4], 4 of 6.

With `OCC1OC(n2cnc3c(Cl)ncnc32)C(O)C1O` (centres undefined), the survivor count (dose: 3.9 mg/kg/injection, schedule: Q01DX Z (ip), vehicle: carboxymethylcellulose (CMC)) is on record as 6 of 6; the survivor count (dose: 31.25 mg/kg/injection, schedule: Q01DX Z (ip), vehicle: carboxymethylcellulose (CMC)) is on record as 6 of 6; the survivor count under setting [5] is listed as 6 of 6; the survivor count under setting [6] was 6 of 6; the survivor count under setting [7] was 6 of 6; the survivor count (dose: 500.0 mg/kg/injection, schedule: Q01DX Z (ip), vehicle: carboxymethylcellulose (CMC)) is recorded as 6 of 6.

On to `CC(=O)Nc1ccc2nc3ccc(NC(C)=O)cc3[n+](-c3ccccc3)c2c1`, for which the survivor count under setting [8] is 6 of 6, the survivor count under setting [3] is reported as 5 of 6 and the survivor count under setting [4] was 6 of 6.

As for `Nc1nc2n[nH]nc2c(=O)[nH]1`, the T/C reads like this: (dose: 25.0 mg/kg/injection, schedule: Q01DX Z (ip), vehicle: other) 142 % of control; (dose: 50.0 mg/kg/injection, schedule: Q01DX Z (ip), vehicle: other) 142 % of control.

As for `CCCCn1cnc2c(=S)nc[nH]c21`, the survivor count is 6 of 6 (dose: 0.4 mg/kg/injection, schedule: Q01DX Z (ip), vehicle: carboxymethylcellulose (CMC)); 6 of 6 (dose: 0.8 mg/kg/injection, schedule: Q01DX Z (ip), vehicle: carboxymethylcellulose (CMC)); 6 of 6 (dose: 1.6 mg/kg/injection, schedule: Q01DX Z (ip), vehicle: carboxymethylcellulose (CMC)); 6 of 6 (dose: 3.1 mg/kg/injection, schedule: Q01DX Z (ip), vehicle: carboxymethylcellulose (CMC)); 6 of 6 under setting [1]; 6 of 6 under setting [2]. The survivor count is, setting by setting: under setting [8], 6 of 6; under setting [3], 6 of 6; under setting [4], 6 of 6; (dose: 200.0 mg/kg/injection, schedule: Q01DX Z (ip), vehicle: carboxymethylcellulose (CMC)) 1 of 6.

Regarding `CN(C)CC(=O)c1ccc(O)c(O)c1`, the survivor count (dose: 250.0 mg/kg/injection, schedule: Q01DX Z (ip), vehicle: saline) is on record as 6 of 6 and the survivor count (dose: 1000.0 mg/kg/injection, schedule: Q01DX Z (ip), vehicle: saline) was 1 of 6.

For `c1ccc(CNc2ncnc3[nH]ncc23)cc1`, the survivor count is listed as 6 of 6 (dose: 4.0 mg/kg/injection, schedule: Q01DX Z (ip), vehicle: carboxymethylcellulose (CMC)); 6 of 6 (dose: 8.0 mg/kg/injection, schedule: Q01DX Z (ip), vehicle: carboxymethylcellulose (CMC)); 6 of 6 (dose: 16.0 mg/kg/injection, schedule: Q01DX Z (ip), vehicle: carboxymethylcellulose (CMC)); 3 of 6 under setting [5]; 0 of 6 under setting [6]; 0 of 6 under setting [7].

Turning to `CCN(CC)C(=S)S`, where the note is “dose: 2000.0 mg/kg/injection, schedule: Q01DX Z (ip), vehicle: water”, the survivor count is recorded as 3 of 6.

Turning to `C[C@]12CCC(=O)C=C1CC[C@@H]1[C@@H]2C(=O)C[C@@]2(C)[C@H]1CC[C@]2(O)C(=O)CO`, the survivor count runs as follows: under setting [9], 6 of 6; under setting [10], 6 of 6; (dose: 500.0 mg/kg/injection, schedule: Q01DX Z (sc), vehicle: steroid suspending solution) 5 of 6; (dose: 1000.0 mg/kg/injection, schedule: Q01DX Z (sc), vehicle: steroid suspending solution) 3 of 6.

For `C[C@]12CCC(=O)C=C1CC[C@@H]1[C@@H]2CC[C@@]2(C)[C@H]1CC[C@]2(C)O`, the T/C runs as follows: (dose: 0.25 mg/kg/injection, schedule: Q01DX Z (sc), vehicle: steroid suspending solution) 138 % of control; (dose: 1.0 mg/kg/injection, schedule: Q01DX Z (sc), vehicle: steroid suspending solution) 143 % of control; (dose: 2.0 mg/kg/injection, schedule: Q01DX Z (sc), vehicle: steroid suspending solution) 128 % of control.

For the compound `O=C(Nc1ccc(C2=NCCN2)cc1)c1ccc(C(=O)Nc2ccc(C3=NCCN3)cc2)c(Cl)c1`, the T/C (dose: 15.0 mg/kg/injection, schedule: Q01DX Z (ip), vehicle: water) was 135 % of control.

With `N#[N+]c1cnc([O-])[nH]c1=O`, the T/C was 114, 133, 140 % of control under setting [11] and 135 % of control under setting [12]. The survivor count is on record as 2 of 6 under setting [11]; 5 of 6 under setting [12]; 2 of 6 (dose: 20.0 mg/kg/injection, schedule: Q01DX Z (ip), vehicle: carboxymethylcellulose (CMC)); 0 of 6 (dose: 40.0 mg/kg/injection, schedule: Q01DX Z (ip), vehicle: carboxymethylcellulose (CMC)).

`CC(=O)[C@H]1CC[C@H]2[C@@H]3C[C@H](C)C4=CC(=O)CC[C@]4(C)[C@H]3C(=O)C[C@]12C`: the survivor count (dose: 100.0 mg/kg/injection, schedule: Q01DX Z (sc), vehicle: steroid suspending solution) is 6 of 6.

Regarding `NC(=O)c1cn(C2OC(CO)C(O)C2O)c2ncnc(N)c12` (centres undefined), the T/C runs as follows: (dose: 0.12 mg/kg/injection, schedule: Q01DX Z (ip), vehicle: carboxymethylcellulose (CMC)) 127 % of control; (dose: 125.0 micrograms/kg/injection, schedule: Q01DX Z (ip), vehicle: carboxymethylcellulose (CMC)) 125 % of control. The survivor count by setting is: (dose: 1.0 mg/kg/injection, schedule: Q01DX Z (ip), vehicle: carboxymethylcellulose (CMC)) 4 of 6; (dose: 2.0 mg/kg/injection, schedule: Q01DX Z (ip), vehicle: carboxymethylcellulose (CMC)) 3 of 6.

`CC1CCOS(=O)O1` (centres undefined): the survivor count runs as follows: under setting [12], 6 of 6; (dose: 160.0 mg/kg/injection, schedule: Q01DX Z (ip), vehicle: carboxymethylcellulose (CMC)) 0 of 6; (dose: 320.0 mg/kg/injection, schedule: Q01DX Z (ip), vehicle: carboxymethylcellulose (CMC)) 0 of 6.

On to `CC[C@@H](c1ccc(O)cc1)[C@@H](CC)c1ccc(O)cc1`, for which the survivor count (dose: 62.5 mg/kg/injection, schedule: Q01DX Z (sc), vehicle: steroid suspending solution) was 6 of 6. The T/C under setting [9] is 128 % of control and the T/C under setting [10] is 128 % of control.
